Our source for the binding values is PMC11615746.

Chains of the proteins cited; added tags and fusions are not shown. Lines headed by an entry give the natural chain unless they say otherwise; changes in a name come on top.
UniProt Q14703: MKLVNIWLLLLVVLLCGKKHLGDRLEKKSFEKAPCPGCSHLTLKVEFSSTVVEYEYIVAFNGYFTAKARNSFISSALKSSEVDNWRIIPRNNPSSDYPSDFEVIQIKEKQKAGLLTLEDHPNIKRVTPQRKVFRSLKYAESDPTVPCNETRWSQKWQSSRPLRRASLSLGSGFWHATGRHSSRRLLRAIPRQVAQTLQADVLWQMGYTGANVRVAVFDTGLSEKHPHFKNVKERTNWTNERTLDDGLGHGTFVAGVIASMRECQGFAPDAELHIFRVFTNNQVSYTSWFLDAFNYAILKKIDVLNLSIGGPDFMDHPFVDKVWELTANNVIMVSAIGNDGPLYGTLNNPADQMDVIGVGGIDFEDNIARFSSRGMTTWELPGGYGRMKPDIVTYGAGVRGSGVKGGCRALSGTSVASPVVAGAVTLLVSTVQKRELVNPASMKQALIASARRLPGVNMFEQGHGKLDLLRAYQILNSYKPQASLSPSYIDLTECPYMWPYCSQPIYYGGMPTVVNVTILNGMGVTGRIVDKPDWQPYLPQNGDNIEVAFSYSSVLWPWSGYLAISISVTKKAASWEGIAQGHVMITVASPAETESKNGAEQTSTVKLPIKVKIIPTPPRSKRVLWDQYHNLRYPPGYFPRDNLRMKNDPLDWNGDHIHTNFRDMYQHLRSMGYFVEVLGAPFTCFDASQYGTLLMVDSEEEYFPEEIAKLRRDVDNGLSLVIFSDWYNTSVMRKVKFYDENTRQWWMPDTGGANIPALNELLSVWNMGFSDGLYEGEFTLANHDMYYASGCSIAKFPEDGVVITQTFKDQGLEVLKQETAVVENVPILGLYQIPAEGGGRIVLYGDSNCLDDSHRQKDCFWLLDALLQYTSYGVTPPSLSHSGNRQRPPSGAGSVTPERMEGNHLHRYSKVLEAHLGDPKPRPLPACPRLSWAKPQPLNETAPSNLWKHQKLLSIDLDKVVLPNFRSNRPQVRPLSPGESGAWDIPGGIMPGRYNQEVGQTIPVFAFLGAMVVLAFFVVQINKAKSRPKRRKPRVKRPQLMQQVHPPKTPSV

Assay [1] deals with activating transcription factor 6 (ATF6), endogenous (human (endogenous in T24, 5637 and 253J)) (UniProt P18850). Kind of assay: co-IP; endogenous proteins; anti-ATF6 IP from 253J cells (TPD52 overexpression or empty vector) and T24 cells (shTPD52 or scramble), with 1 µg/mL tunicamycin where indicated; immunoblot. Background: In western blotting, separated proteins are transferred to a membrane and probed.

For assay [2], the target named is T1, Flag-ATF6 luminal domain (amino acids 400-670) (UniProt P18850).
T1 sequence: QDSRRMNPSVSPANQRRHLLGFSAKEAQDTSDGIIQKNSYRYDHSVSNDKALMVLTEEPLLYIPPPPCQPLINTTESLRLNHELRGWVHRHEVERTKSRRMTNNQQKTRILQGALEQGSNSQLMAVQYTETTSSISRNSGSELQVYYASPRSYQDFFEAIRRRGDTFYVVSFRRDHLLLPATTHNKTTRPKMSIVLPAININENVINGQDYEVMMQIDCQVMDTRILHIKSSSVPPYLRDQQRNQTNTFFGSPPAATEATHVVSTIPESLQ
Kind of assay: co-IP; 293T cells transfected with HA-TPD52 and Flag-ATF6 or its truncation constructs; IP buffer (50 mM Tris HCl, 150 mM NaCl, 1 mM EDTA, 1% Triton X-100), antibody-conjugated agarose beads, 4 °C, 4 h; immunoblot.

Assay [3] deals with T2, Flag-ATF6 transmembrane domain (amino acids 378-399) (UniProt P18850).
T2 sequence: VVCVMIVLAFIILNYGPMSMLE
Described as above.

Assay [4] concerns the target tumor protein D52 (TPD52), endogenous (human (endogenous in T24 and 5637)). In words: co-IP; endogenous proteins; anti-TPD52 IP (T24), anti-ATF6 IP (T24 and 5637), anti-Cdc20 IP (T24, 20 µM MG132 for 6 h before harvesting); immunoblot.

No constants are given. Whether binding was seen depends on the method and setting. Binding seen in cells or lysates may run through a third protein. For some of these results: Binding calls can cover weak binding; strength is not graded here. For some of these results: Where a sequence is shown, tags or fusion partners need not be part of it.

As for “site-1 protease (S1P), endogenous (from UniProt Q14703) (enzyme)”, in assay [1], the binding result is given as “binds”.

As for HA-TPD52 (human), the binding result in assay [2] is “binds”; in assay [3], “no binding”.

B1: site-2 protease (S2P), endogenous (enzyme, UniProt O43462 1-519)
chain: MIPVSLVVVVVGGWTVVYLTDLVLKSSVYFKHSYEDWLENNGLSISPFHIRWQTAVFNRAFYSWGRRKARMLYQWFNFGMVFGVIAMFSSFFLLGKTLMQTLAQMMADSPSSYSSSSSSSSSSSSSSSSSSSSSSSLHNEQVLQVVVPGINLPVNQLTYFFTAVLISGVVHEIGHGIAAIREQVRFNGFGIFLFIIYPGAFVDLFTTHLQLISPVQQLRIFCAGIWHNFVLALLGILALVLLPVILLPFYYTGVGVLITEVAEDSPAIGPRGLFVGDLVTHLQDCPVTNVQDWNECLDTIAYEPQIGYCISASTLQQLSFPVRAYKRLDGSTECCNNHSLTDVCFSYRNNFNKRLHTCLPARKAVEATQVCRTNKDCKKSSSSSFCIIPSLETHTRLIKVKHPPQIDMLYVGHPLHLHYTVSITSFIPRFNFLSIDLPVVVETFVKYLISLSGALAIVNAVPCFALDGQWILNSFLDATLTSVIGDNDVKDLIGFFILLGGSVLLAANVTLGLWMVTAR
For the molecule B1, the binding entry in assay [4] is recorded as “binds”.
